The target of this assay is MBP-tagged SARS-CoV-2 nsp1 (full-length, His6-MBP fusion) (SARS-CoV-2) (UniProt P0DTD1). Kind of assay: pull-down.

No constants are given. Whether binding was seen depends on the method and setting.

B1: primase heterodimer Pri1 - Pri2 (complex, UniProt P49642 1-420; P49643 1-509)
chain 1: METFDPTELPELLKLYYRRLFPYSQYYRWLNYGGVIKNYFQHREFSFTLKDDIYIRYQSFNNQSDLEKEMQKMNPYKIDIGAVYSHRPNQHNTVKLGAFQAQEKELVFDIDMTDYDDVRRCCSSADICPKCWTLMTMAIRIIDRALKEDFGFKHRLWVYSGRRGVHCWVCDESVRKLSSAVRSGIVEYLSLVKGGQDVKKKVHLSEKIHPFIRKSINIIKKYFEEYALVNQDILENKESWDKILALVPETIHDELQQSFQKSHNSLQRWEHLKKVASRYQNNIKNDKYGPWLEWEIMLQYCFPRLDINVSKGINHLLKSPFSVHPKTGRISVPIDLQKVDQFDPFTVPTISFICRELDAISTNEEEKEENEAESDVKHRTRDYKKTSLAPYVKVFEHFLENLDKSRKGELLKKSDLQKDF
chain 2: MEFSGRKWRKLRLAGDQRNASYPHCLQFYLQPPSENISLIEFENLAIDRVKLLKSVENLGVSYVKGTEQYQSKLESELRKLKFSYRENLEDEYEPRRRDHISHFILRLAYCQSEELRRWFIQQEMDLLRFRFSILPKDKIQDFLKDSQLQFEAISDEEKTLREQEIVASSPSLSGLKLGFESIYKIPFADALDLFRGRKVYLEDGFAYVPLKDIVAIILNEFRAKLSKALALTARSLPAVQSDERLQPLLNHLSHSYTGQDYSTQGNVGKISLDQIDLLSTKSFPPCMRQLHKALRENHHLRHGGRMQYGLFLKGIGLTLEQALQFWKQEFIKGKMDPDKFDKGYSYNIRHSFGKEGKRTDYTPFSCLKIILSNPPSQGDYHGCPFRHSDPELLKQKLQSYKISPGGISQILDLVKGTHYQVACQKYFEMIHNVDDCGFSLNHPNQFFCESQRILNGGKDIKKEPIQPETPQPKPSVQKTKDASSALASLNSSLEMDMEGLEDYFSEDS
Consider B1, for which the binding result is “no binding”.

These data come from doi:10.1101/2021.06.17.448816.
